Binding result and binding signal (% molecules in tripartite complex) data for 9 sequences are collected here from PMC4081077.

Construct, isoform or probe ends are uncertain for at least one entry. For some assays here: A negative result means that nothing was seen under these conditions. For some assays here: At least one verdict was read from the data and is not stated in words by the source. For some assays here: Where a protein sequence is shown, tags need not be part of it. For some assays here: Weaker means in comparison with the reference protein, sequence or condition of that experiment. For some assays here: Whether high values mean tight binding is not given here for every scale.

In series [1] the target is T1, TrfA-33 G254D/S267L (monomeric) (plasmid RK2) (UniProt P07676).
T1 sequence (looked up, limits assumed): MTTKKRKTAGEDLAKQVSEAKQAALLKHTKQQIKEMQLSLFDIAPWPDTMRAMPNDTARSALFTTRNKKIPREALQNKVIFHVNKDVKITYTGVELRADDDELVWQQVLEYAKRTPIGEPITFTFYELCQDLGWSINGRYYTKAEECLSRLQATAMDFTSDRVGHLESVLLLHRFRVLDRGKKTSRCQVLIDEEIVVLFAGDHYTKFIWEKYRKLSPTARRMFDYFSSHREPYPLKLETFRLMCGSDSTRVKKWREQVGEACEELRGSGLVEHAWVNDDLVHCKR
Put plainly: SPR. As to conditions: only slight interaction; SPR: HBS-EP (150 mM NaCl, 10 mM HEPES pH 7.4, 3 mM EDTA, 0.005% P20); recombinant protein; label: immobilized on streptavidin chip.

The target of series [2] is T1, TrfA-33 G254D/S267L (monomeric) (plasmid RK2). Put plainly: EMSA. The note with it: EMSA: 40 mM HEPES-KOH pH 8, 25 mM Tris-HCl pH 7.6, 100 mM NaCl, 4% sucrose, 4 mM DTT, 80 ug/ml BSA, 32 C 20 min, 1 pmol probe, 5-20 pmol Rep, recombinant protein. (Mobility shift assays separate free from complexed probe on a gel.)
Series [3] addresses RepE R118P (monomeric) (plasmid F) (UniProt P03856). Put plainly: EMSA. As to conditions: EMSA: 40 mM HEPES-KOH pH 8, 25 mM Tris-HCl pH 7.6, 100 mM NaCl, 4% sucrose, 4 mM DTT, 80 ug/ml BSA, 32 C 20 min, 1 pmol probe, 5-20 pmol Rep, recombinant protein, label: Alexa555 3' tailed, single-stranded DNA.
The target of series [4] is T1, TrfA-33 G254D/S267L (monomeric) (plasmid RK2). Put plainly: gel filtration. The note with it: recombinant protein, single-stranded DNA.
Series [5] shares this target. Put plainly: AFM. The note with it: recombinant protein, single-stranded DNA; for binding signal (% molecules in tripartite complex): TrfA prebound to linear iteron dsDNA, 10% or less.
Where [6] appears, read: tripartite with supercoiled plasmid.

Regarding “AGCTCACAATTCCACACAACATACGAGCCGGAAGCATAAAGTGTAAAGCCTGGGGTGCCTAATGAGTGAGCTAACTCACATTAATTGCGTTGCGCTCACTGCCCGCTTTCCAGTCGGGAAACCTGTCGT (double strand) [dsDNA pUC18 fragment]”, the binding result in series [1] was “binds more weakly”. Turning to “AAGCCGTGTGCGAGACACCGCGGCCGCCGGCGTTGTGGATACCTCGCGGAAAACTTGGCCCTCACTGACAGATGAGGGGCGGACGTTGACACTTGAGGGGCCGACTCACCCGGCGCGGCGTTGACAGATGAGGGGCAGGCTCGATTTCGGCCGGCGACGTGGAGCTGGCCAGCCTCGCAAATCGGCGAAAACGCCTGATTTTACGCGAGTTTCCCACAGATGATGTGGACAAGCCTGGGGATAAGTGCCCTGCGGTATTGACACTTGAGGGGCGCGACTACTGACAGATGAGGGGCGCGATCCTTGACACTTGAGGGGCAGAGTGCTGACAGATGAGGGGCGCACCTATTGACATTTGAGGGGCTGTCCACAGGCAGAAAATCCAGCATTTGCAAGGGTTTCCGCCCGTTTTTCGGCCACCGCTAACCTGTCTTT (double strand) [dsDNA oriV (minimal origin PCR fragment)]”, in series [2] (five retarded bands, label: Alexa555 3' tailed, probe letters rebuilt from the primers and the genome), the binding result is listed as “binds”. With “CCACGGGGATATTTTTATAATTATTTTTTTTATAGTTTTTAGATCTTCTTTTTTAGAGC [ssDNA DUEoriS top]”, in series [3] (legend: binds one specific strand, bottom strand named in Fig S7), the binding result is “no binding”. With “CCACCGCATTGGACAGAAAAAACCTGCTTTTAAACCAATATTTATAAACCTTGTTTTTAACCAGGGCTGC [ssDNA DUEoriV bottom swap M1-R]”, the binding result in series [4] (setting [6]) is reported as “binds more weakly”. Also, in series [5], the binding signal (% molecules in tripartite complex) was < 10. As for “CCACCGCTAACCTGTCTTTTAACCTGCTTTTAAACCAATATTTATAAACCTTGTTTTTAACCAGGGCTGC (double strand) [dsDNA DUEoriV]”, the binding result in series [1] is “binds more weakly”. As to “CCACCGCATTGGACAGAAAATTGGACGAAAATAACCAATATTTATAAACCTTGTTTTTAACCAGGGCTGC [ssDNA DUEoriV bottom swap M2-R]”, the binding result in series [4] (setting [6]) is reported as “binds more weakly”. Moreover, in series [5], the binding signal (% molecules in tripartite complex) is < 10. With “CCACCGCTAACCTGTCTTTTAACCTGCTTTTAAACCAATATTTATAAACCTTGTTTTTAACCAGGGCTGC [ssDNA DUEoriV top]”, the binding result in series [4] (tripartite with supercoiled pKD19L1 1-6) is on record as “no binding”; in series [5] (TrfA prebound to N10, tripartite count almost as low as no-ssDNA control), “no binding”.

On to “GCTCTAAAAAAGAAGATCTAAAAACTATAAAAAAAATAATTATAAAAATATCCCCGTG [ssDNA DUEoriS bottom]”, for which the binding result in series [3] was “binds”. With “CCACCGCATTGGACAGAAAATTGGACGAAAATTTGGTTATAAATTAAACCTTGTTTTTAACCAGGGCTGC [ssDNA DUEoriV bottom swap R]”, the binding result is “binds more weakly” in series [4] (setting [6]) and “binds more weakly” in series [2] (one retarded band instead of two, single-stranded DNA). Moreover, the binding signal (% molecules in tripartite complex) in series [5] was < 10.
